No constants are given. Whether binding was seen depends on the method and setting. In cells and extracts the contact can be indirect. Some binding calls cover weakened binding; strength is not graded here.

Chains of the proteins cited; added tags and fusions are not shown. Residues count along the entry.
UniProt O00206, residues 24-839: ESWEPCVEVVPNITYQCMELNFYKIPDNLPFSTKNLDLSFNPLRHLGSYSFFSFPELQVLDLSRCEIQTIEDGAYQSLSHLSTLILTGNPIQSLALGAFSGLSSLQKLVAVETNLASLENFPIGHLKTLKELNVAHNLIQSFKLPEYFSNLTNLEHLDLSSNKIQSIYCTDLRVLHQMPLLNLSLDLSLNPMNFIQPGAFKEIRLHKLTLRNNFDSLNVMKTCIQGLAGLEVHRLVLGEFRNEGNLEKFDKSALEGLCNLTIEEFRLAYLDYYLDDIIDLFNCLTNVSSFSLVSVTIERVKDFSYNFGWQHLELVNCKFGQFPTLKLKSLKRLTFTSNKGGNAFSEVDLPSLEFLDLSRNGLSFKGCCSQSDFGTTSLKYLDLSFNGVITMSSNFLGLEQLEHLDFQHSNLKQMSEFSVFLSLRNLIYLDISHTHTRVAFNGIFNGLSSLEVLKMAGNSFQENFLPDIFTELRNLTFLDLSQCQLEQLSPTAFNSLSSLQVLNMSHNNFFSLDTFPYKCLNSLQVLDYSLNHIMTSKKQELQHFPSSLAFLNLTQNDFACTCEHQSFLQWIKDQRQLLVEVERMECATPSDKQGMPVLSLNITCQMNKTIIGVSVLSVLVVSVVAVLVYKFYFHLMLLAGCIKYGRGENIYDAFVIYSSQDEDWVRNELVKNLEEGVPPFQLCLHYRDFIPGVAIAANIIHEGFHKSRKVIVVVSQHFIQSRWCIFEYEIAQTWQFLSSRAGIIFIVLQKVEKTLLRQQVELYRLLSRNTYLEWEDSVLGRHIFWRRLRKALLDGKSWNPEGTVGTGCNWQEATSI
UniProt P25105: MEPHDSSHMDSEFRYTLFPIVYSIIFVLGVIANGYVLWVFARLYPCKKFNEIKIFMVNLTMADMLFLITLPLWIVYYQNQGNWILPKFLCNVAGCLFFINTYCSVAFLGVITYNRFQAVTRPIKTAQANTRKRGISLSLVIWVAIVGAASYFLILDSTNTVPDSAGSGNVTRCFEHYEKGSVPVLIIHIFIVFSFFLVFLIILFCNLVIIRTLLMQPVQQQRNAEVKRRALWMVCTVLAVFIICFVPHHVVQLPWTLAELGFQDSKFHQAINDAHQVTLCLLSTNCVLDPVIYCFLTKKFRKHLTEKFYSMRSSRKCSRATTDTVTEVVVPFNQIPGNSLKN

The target in experiment [1] is toll-like receptor 4 (human (endogenous in HUVECs)) (UniProt O00206). The experiment in a line: co-IP; HUVECs exposed to 30 mM glucose for 8 h; lysates (1% Triton X-100 buffer) incubated with anti-PAFR or anti-TLR4 antibody overnight at 4°C, protein A/G Sepharose beads, immunoblot for PAFR and TLR4; nonimmune IgG as negative control.
The target in experiment [2] is platelet-activating factor receptor (human (endogenous in HUVECs)) (UniProt P25105). The experiment is described as above.

For “platelet-activating factor receptor (from UniProt P25105 1-342)”, the binding entry in experiment [1] was “binds”.

Turning to “toll-like receptor 4 (from UniProt O00206 24-839)”, the binding result in experiment [2] was “binds”.

The record behind these values is PMC5529656.
